Laboratory results reported in the supplement of paper PMC4604168 (melanoma cell lines).
The other results are listed elsewhere or left out. Repeats are few or missing, and single values can be far off.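 Imaging used 1,536-well plates; nuclei positive for cleaved PARP by antibody were divided by total DNA-stained nuclei to yield the apoptosis fraction. Doses for screening kept most cells viable, and cell lines differ markedly in resting and induced cleaved-PARP levels.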

Key:
Assay in all cases: cleaved PARP positive nuclei fraction relative to DMSO control; melanoma cells; higher = more apoptosis
Settings in all cases: library dose: low library concentration; 72 h
MZ2-MEL = tested on: MZ2-MEL
MeWo = tested on: MeWo
RPMI7951 = tested on: RPMI7951
RVH-421 = tested on: RVH-421
SkMel28 = tested on: SkMel28
SkMel2 = tested on: SkMel2
SkMel30 = tested on: SkMel30
UACC62 = tested on: UACC62
WM115 = tested on: WM115
WM1716 = tested on: WM1716
WM1745 = tested on: WM1745
WM3526 = tested on: WM3526
WM3619 = tested on: WM3619
WM451Lu = tested on: WM451Lu

SMILES | cleaved PARP positive nuclei fraction (MZ2-MEL) [%] | cleaved PARP positive nuclei fraction (MeWo) [%] | cleaved PARP positive nuclei fraction (RPMI7951) [%] | cleaved PARP positive nuclei fraction (RVH-421) [%] | cleaved PARP positive nuclei fraction (SkMel28) [%] | cleaved PARP positive nuclei fraction (SkMel2) [%] | cleaved PARP positive nuclei fraction (SkMel30) [%] | cleaved PARP positive nuclei fraction (UACC62) [%] | cleaved PARP positive nuclei fraction (WM115) [%] | cleaved PARP positive nuclei fraction (WM1716) [%] | cleaved PARP positive nuclei fraction (WM1745) [%] | cleaved PARP positive nuclei fraction (WM3526) [%] | cleaved PARP positive nuclei fraction (WM3619) [%] | cleaved PARP positive nuclei fraction (WM451Lu) [%]
C[C@@H](Oc1cc(-c2cnn(C3CCNCC3)c2)cnc1N)c1c(Cl)ccc(F)c1Cl [Crizotinib] + CS(=O)(=O)CCNCc1ccc(-c2ccc3ncnc(Nc4ccc(OCc5cccc(F)c5)c(Cl)c4)c3c2)o1 [lapatinib] (first compound 0.2 µM, partner dose 0.8 µM) | 31 | 193 | 167 | 174 | 86.5 | 100 | 29.3 | 192 | 131 | 1530 | 129 | 93.1 | 105 | 97.4
CN1CCN(c2ccc3nc(-c4c(N)c5c(F)cccc5[nH]c4=O)[nH]c3c2)CC1 [Dovitinib] + CCCS(=O)(=O)Nc1ccc(F)c(C(=O)c2c[nH]c3ncc(Cl)cc23)c1F [PLX4720] (first compound 0.1 µM, partner dose 0.08 µM) | 162 | 56.9 | 116 | 102 | 48.1 | 79.7 | 143 | 132 | 109 | 6.33 | 126 | 207 | 83.5 | 236
CNC(=O)c1cc(Oc2ccc(NC(=O)Nc3ccc(Cl)c(C(F)(F)F)c3)cc2)ccn1 [sorafenib] + Nc1nc(F)nc2c1ncn2[C@@H]1O[C@H](CO)[C@@H](O)[C@@H]1O [fludarabine] (first compound 0.4 µM, partner dose 0.2 µM) | 91.8 | 200 | 115 | 71.9 | 60.2 | 749 | 3210 | 82.6 | 68.8 | 37.7 | 1590 | 2260 | 103 | 242
C=C(c1ccc(C(=O)O)cc1)c1cc2c(cc1C)C(C)(C)CCC2(C)C [Bexarotene] + C=CCNC1=C2C[C@@H](C)C[C@H](OC)[C@H](O)[C@@H](C)/C=C(\C)[C@H](OC(N)=O)[C@@H](OC)/C=C\C=C(/C)C(=O)NC(=CC1=O)C2=O [Tanespimycin] (first compound 2 µM, partner dose 0.002 µM) | 145 | 49.9 | 57.1 | 251 | 103 | 157 | 139 | 46.7 | 70.3 | 35.3 | 89.9 | 50.6 | 76.3 | 75.6
Cn1c(=O)n(-c2ccc(C(C)(C)C#N)cc2)c2c3cc(-c4cnc5ccccc5c4)ccc3ncc21 + Clc1ccc(Nc2nnc(Cc3ccncc3)c3ccccc23)cc1 [vatalanib] (first compound 0.004 µM, partner dose 2 µM) | 111 | 158 | 42.9 | 208 | 87.2 | 83.5 | 142 | 65.4 | 55.8 | 107 | 128 | 83.7 | 125 | 293
CC(C)C[C@H](NC(=O)[C@H](Cc1ccccc1)NC(=O)c1cnccn1)B(O)O [Bortezomib] + Cc1nc(Nc2ncc(C(=O)Nc3c(C)cccc3Cl)s2)cc(N2CCN(CCO)CC2)n1 [dasatanib] (first compound 0.001 µM, partner dose 0.004 µM) | 403 | 61.5 | 50.1 | 72.7 | 100 | 115 | 134 | 96.4 | 87.6 | 587 | 464 | 28.5 | 597 | 362
O=C(O)c1ccc2c(c1)nc(Nc1cccc(Cl)c1)c1ccncc12 + Nc1cccc2c1CN(C1CCC(=O)NC1=O)C2=O [lenalidomide] (first compound 0.4 µM, partner dose 1 µM) | 114 | 135 | 91.4 | 183 | 169 | 154 | 164 | 39.1 | 105 | 78.7 | 90.4 | 80.1 | 93.8 | 30.5
CNC(=O)c1cc(Oc2ccc(NC(=O)Nc3ccc(Cl)c(C(F)(F)F)c3)cc2)ccn1 [sorafenib] + C[C@]1(c2nc3c(C(N)=O)cccc3[nH]2)CCCN1 [Veliparib] (first compound 0.4 µM, partner dose 1.4 µM) | 61.9 | 34.5 | 124 | 211 | 85.7 | 83.9 | 103 | 145 | 143 | 75.2 | 93.3 | 148 | 76.8 | 80.5
Nc1ccn([C@@H]2O[C@H](CO)[C@@H](O)C2(F)F)c(=O)n1 [gemcitabine] + Nc1cccc2c1CN(C1CCC(=O)NC1=O)C2=O [lenalidomide] (first compound 0.0004 µM, partner dose 1 µM) | 44.2 | 49.7 | 41.5 | 57.3 | 80.4 | 40 | 99.8 | 152 | 70.5 | 419 | 134 | 96.6 | 140 | 75.2
Cn1c(=O)n(-c2ccc(C(C)(C)C#N)cc2)c2c3cc(-c4cnc5ccccc5c4)ccc3ncc21 + C[C@]1(c2nc3c(C(N)=O)cccc3[nH]2)CCCN1 [Veliparib] (first compound 0.004 µM, partner dose 1.4 µM) | 117 | 118 | 43 | 145 | 97.4 | 43.5 | 62.6 | 260 | 132 | 115 | 94.5 | 42.3 | 91.8 | 52.3
Nc1ccn([C@@H]2O[C@H](CO)[C@@H](O)C2(F)F)c(=O)n1 [gemcitabine] + COc1ccc(Cl)c(Nc2nc3ccccc3nc2NS(=O)(=O)c2cccc(NC(=O)C(C)(C)N)c2)c1 [XL147] (first compound 0.0004 µM, partner dose 0.8 µM) | 73.9 | 103 | 87.9 | 155 | 66.3 | 84.2 | 196 | 28.4 | 153 | 59.1 | 136 | 42.6 | 115 | 76.3
O=C(O)[C@@H]1[O][Sb](=[O])([O][Sb]2(=[O])[O][C@H]([C@H](O)CO)[C@H](O)[C@H](C(=O)O)[O]2)[O][C@H]([C@H](O)CO)[C@@H]1O (some centres not stated) [stibogluconate] + Nc1cccc2c1CN(C1CCC(=O)NC1=O)C2=O [lenalidomide] (first compound 2 µM, partner dose 1 µM) | 197 | 81.3 | 106 | 31 | 49.1 | 109 | 59.5 | 66.7 | 119 | 65 | 203 | 64 | 95.8 | 17.5
Nc1ncn([C@H]2C[C@H](O)[C@@H](CO)O2)c(=O)n1 [decitabine] + COc1ccc(Cl)c(Nc2nc3ccccc3nc2NS(=O)(=O)c2cccc(NC(=O)C(C)(C)N)c2)c1 [XL147] (first compound 0.1 µM, partner dose 0.8 µM) | 80.8 | 119 | 177 | 133 | 137 | 57.1 | 71.9 | 118 | 168 | 193 | 113 | 97.4 | 65.8 | 28.8
O=C(O)c1ccc2c(c1)nc(Nc1cccc(Cl)c1)c1ccncc12 + CCCS(=O)(=O)Nc1ccc(F)c(C(=O)c2c[nH]c3ncc(Cl)cc23)c1F [PLX4720] (first compound 0.4 µM, partner dose 0.08 µM) | 106 | 188 | 36.7 | 65 | 74.8 | 101 | 49.1 | 178 | 270 | 353 | 103 | 51.7 | 103 | 72.9
CC(C)C[C@H](NC(=O)[C@H](Cc1ccccc1)NC(=O)c1cnccn1)B(O)O [Bortezomib] + CN1CCN(c2ccc3nc(-c4c(N)c5c(F)cccc5[nH]c4=O)[nH]c3c2)CC1 [Dovitinib] (first compound 0.001 µM, partner dose 0.1 µM) | 692 | 113 | 127 | 199 | 170 | 79.2 | 145 | 231 | 144 | 946 | 156 | 83.5 | 874 | 156
Cc1cc(Nc2cc(N3CCN(C)CC3)nc(/C=C/c3ccccc3)n2)n[nH]1 + COc1ccc(Cl)c(Nc2nc3ccccc3nc2NS(=O)(=O)c2cccc(NC(=O)C(C)(C)N)c2)c1 [XL147] (first compound 0.04 µM, partner dose 0.8 µM) | 156 | 68.2 | 189 | 50.1 | 83.9 | 104 | 33.2 | 102 | 235 | 46 | 113 | 159 | 92.4 | 47.8
Nc1nc(F)nc2c1ncn2[C@@H]1O[C@H](CO)[C@@H](O)[C@@H]1O [fludarabine] + COc1ccc(Cl)c(Nc2nc3ccccc3nc2NS(=O)(=O)c2cccc(NC(=O)C(C)(C)N)c2)c1 [XL147] (first compound 0.2 µM, partner dose 0.8 µM) | 76.7 | 1190 | 106 | 55.6 | 53.2 | 894 | 1610 | 34.9 | 180 | 49.6 | 156 | 280 | 85.1 | 94.3
Cc1cc(Nc2cc(N3CCN(C)CC3)nc(/C=C/c3ccccc3)n2)n[nH]1 + Nc1ccn([C@@H]2O[C@H](CO)[C@@H](O)C2(F)F)c(=O)n1 [gemcitabine] (first compound 0.04 µM, partner dose 0.0004 µM) | 61.9 | 79.8 | 94.6 | 77.5 | 78.3 | 99.3 | 147 | 176 | 87 | 122 | 107 | 27 | 124 | 40.4

Looked up above.
Entry of CC(C)C[C@H](NC(=O)[C@H](Cc1ccccc1)NC(=O)c1cnccn1)B(O)O [Bortezomib] + Cc1nc(Nc2ncc(C(=O)Nc3c(C)cccc3Cl)s2)cc(N2CCN(CCO)CC2)n1 [dasatanib] (first compound 0.001 µM, partner dose 0.004 µM) under cleaved PARP positive nuclei fraction (SkMel28) [%]: 100
Entry of CN1CCN(c2ccc3nc(-c4c(N)c5c(F)cccc5[nH]c4=O)[nH]c3c2)CC1 [Dovitinib] + CCCS(=O)(=O)Nc1ccc(F)c(C(=O)c2c[nH]c3ncc(Cl)cc23)c1F [PLX4720] (first compound 0.1 µM, partner dose 0.08 µM) under cleaved PARP positive nuclei fraction (WM3619) [%]: 83.5
